Laboratory results taken from patent US20240261416A1, “SYNTHESIS OF NOVEL CEREBLON E3 LIGASE LIGANDS, COMPOUNDS FORMED THEREBY, AND PHARMACEUTICAL COMPOSITIONS CONTAINING THEM” (Wisconsin Alumni Research Foundation, priority 2023, published 2024).
Some entries share one result that the patent states for a list of compounds.

Experiment: stability in phosphate buffer with different pHs
Format: physicochemical
Conditions: for hydrolysis in PB7.4 buffer, in words: PB7.4, 24 h, 37° C.; for stability at higher pH, in words: PB8.8, compared with lenalidomide
Text: Under acidic conditions, all compounds are very stable.

Row | Structure (SMILES) | hydrolysis in PB7.4 buffer, in words | stability at higher pH, in words
1 | Cc1c(C#CCNC(=O)OC(C)(C)C)cccc1N1CCC(=O)NC1=O [Compound 6F, tert-butyl (3-(3-(2,4-dioxotetrahydropyrimidin-1(2H)-yl)-2-methylphenyl)prop-2-yn-1-yl)carbamate] | not detected | much more stable than lenalidomide
2 | CCNC(=O)COc1cccc(N2CCC(=O)NC2=O)c1C [Compound 10, 2-(3-(2,4-dioxotetrahydropyrimidin-1(2H)-yl)-2-methylphenoxy)-N-ethylacetamide] | not detected | much more stable than lenalidomide
3 | CC(=O)NCCC#Cc1cccc(N2CCC(=O)NC2=O)c1C [Compound 11, N-(4-(3-(2,4-dioxotetrahydropyrimidin-1(2H)-yl)-2-methylphenyl)but-3-yn-1-yl)acetamide] | not detected | much more stable than lenalidomide
4 | Cc1c(OCC(=O)N2CCCCC2)cccc1N1CCC(=O)NC1=O [Compound 9, 1-(2-methyl-3-(2-oxo-2-(piperidin-1-yl)ethoxy)phenyl)dihydropyrimidine-2,4(1H,3H)-dione] | not detected | much more stable than lenalidomide
